PubChem BioAssay AID1259405, NCATS, 2018
Here is a random part of about 50,000 deposited reagents. Of all reagents, about 4,000 (8%) got an active call. 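Mouse siRNA library applied to hamster cells; one well for each siRNA.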 Reagents against one gene are numbered here. No sequences are given here.

- Test: 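Silenced genes that increase secreted GFP made by CHO cells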 (primary screen)
- System: Chinese hamster CHO-K1 ovary cells with stable secreted eGFP expression
- Reagent: single siRNA against mouse genes, 0.8 pmol siRNA per well (2 µl of 400 nM stock)
- Timing: 3 days
- Detection: 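Per-well intracellular GFP measured by laser scanning cytometry, plus viability from ATP luminescence, each relative to plate median of non-targeting control wells, in %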
- Scale: GFP, % of control: higher = more GFP per well, higher productivity; viability (ATP), % of control: higher = more viable cells (more ATP)
- Hit rule: 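a knock-down is called active if GFP reaches 120% or more of non-targeting control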

Polk #1 | GFP, % of control: 127; viability (ATP), % of control: 89.9; Outcome: active
Polk #2 | GFP, % of control: 74.4; viability (ATP), % of control: 59.5; Outcome: inactive
Klk11 #1 | GFP, % of control: 114; viability (ATP), % of control: 58.3; Outcome: inactive
Klk11 #2 | GFP, % of control: 86.8; viability (ATP), % of control: 93.5; Outcome: inactive
Klk11 #3 | GFP, % of control: 102; viability (ATP), % of control: 93; Outcome: inactive
Rtn4rl2 #1 | GFP, % of control: 90.9; viability (ATP), % of control: 66.1; Outcome: inactive
Rtn4rl2 #2 | GFP, % of control: 46.5; viability (ATP), % of control: 26.8; Outcome: inactive
Rtn4rl2 #3 | GFP, % of control: 27.3; viability (ATP), % of control: 35.6; Outcome: inactive
Imp3 #1 | GFP, % of control: 41.1; viability (ATP), % of control: 78.1; Outcome: inactive
Imp3 #2 | GFP, % of control: 123; viability (ATP), % of control: 105; Outcome: active
Imp3 #3 | GFP, % of control: 70; viability (ATP), % of control: 62.5; Outcome: inactive
Hsd17b11 #1 | GFP, % of control: 61.5; viability (ATP), % of control: 43.6; Outcome: inactive
Hsd17b11 #2 | GFP, % of control: 66.2; viability (ATP), % of control: 53.4; Outcome: inactive
Hsd17b11 #3 | GFP, % of control: 89.9; viability (ATP), % of control: 69.8; Outcome: inactive
Prpf38a #1 | GFP, % of control: 58.9; viability (ATP), % of control: 70.4; Outcome: inactive
Prpf38a #2 | GFP, % of control: 65.6; viability (ATP), % of control: 69.2; Outcome: inactive
Prpf38a #3 | GFP, % of control: 87.4; viability (ATP), % of control: 128; Outcome: inactive
Tmprss15 #1 | GFP, % of control: 98; viability (ATP), % of control: 85.9; Outcome: inactive
Tmprss15 #2 | GFP, % of control: 75.2; viability (ATP), % of control: 41.6; Outcome: inactive
Tmprss15 #3 | GFP, % of control: 84.6; viability (ATP), % of control: 59.2; Outcome: inactive
Cfap68 #1 | GFP, % of control: 71; viability (ATP), % of control: 88.2; Outcome: inactive
Cfap68 #2 | GFP, % of control: 90.3; viability (ATP), % of control: 70.8; Outcome: inactive
Cfap68 #3 | GFP, % of control: 69.5; viability (ATP), % of control: 44; Outcome: inactive
Teddm3 #1 | GFP, % of control: 133; viability (ATP), % of control: 98.6; Outcome: active
Teddm3 #2 | GFP, % of control: 88.7; viability (ATP), % of control: 105; Outcome: inactive
Teddm3 #3 | GFP, % of control: 76.1; viability (ATP), % of control: 85.6; Outcome: inactive
Actl9 #1 | GFP, % of control: 94.9; viability (ATP), % of control: 73.4; Outcome: inactive
Actl9 #2 | GFP, % of control: 86.6; viability (ATP), % of control: 104; Outcome: inactive
Actl9 #3 | GFP, % of control: 50; viability (ATP), % of control: 54.6; Outcome: inactive
Krtap19-4 #1 | GFP, % of control: 48.8; viability (ATP), % of control: 62.2; Outcome: inactive
Krtap19-4 #2 | GFP, % of control: 14.2; viability (ATP), % of control: 26.5; Outcome: inactive
Krtap19-4 #3 | GFP, % of control: 63.9; viability (ATP), % of control: 47.2; Outcome: inactive
Map3k3 #1 | GFP, % of control: 123; viability (ATP), % of control: 79.9; Outcome: active
Map3k3 #2 | GFP, % of control: 74.6; viability (ATP), % of control: 58.1; Outcome: inactive
Map3k3 #3 | GFP, % of control: 61.2; viability (ATP), % of control: 78.4; Outcome: inactive
Mgat5 #1 | GFP, % of control: 61.2; viability (ATP), % of control: 57.4; Outcome: inactive
Mgat5 #2 | GFP, % of control: 76.9; viability (ATP), % of control: 75.6; Outcome: inactive
Mgat5 #3 | GFP, % of control: 72.3; viability (ATP), % of control: 84.7; Outcome: inactive
1700129C05Rik #1 | GFP, % of control: 81.7; viability (ATP), % of control: 87; Outcome: inactive
1700129C05Rik #2 | GFP, % of control: 80.7; viability (ATP), % of control: 90.1; Outcome: inactive
1700129C05Rik #3 | GFP, % of control: 82.2; viability (ATP), % of control: 87.4; Outcome: inactive
